PubChem BioAssay AID743454, Peter MacCallum Cancer Centre, 2014

- Aim: 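Genes whose loss kills vorinostat-resistant colon cancer cells under vorinostat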 (primary screen)
- System: human HCT116-VR colon cancer cells, selected for vorinostat resistance
- Reagent: siRNA pool against human genes, 40 nM siRNA pool
- Timing: vorinostat for 24 h, read-out about 72 h after transfection
- Challenge: vorinostat at 2.5 µM final
- Measurement: 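Cell viability by CellTiter-Fluor and caspase 3/7 activity by luminescence, each scaled to mock wells per plate, duplicates averaged, then robust z-scored over all plates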
- Reading the numbers: viability robust z-score: higher = more viable cells than screen typical; caspase robust z-score: higher = more caspase 3/7 activity than screen typical
- Hit rule: 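Hits are knock-downs in viability class RV1/RV2 or caspase class CA1/CA2, excluding ones that killed cells in the no-drug cell-count arm; hits then retested with single siRNAs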
The whole screen tested about 18,000 reagents; shown is a random part of them. 450 of all reagents (2.5%) were called active. 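Single biological run; no consistent viability z cut-off exists, so the class columns, not z-scores, define the calls.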

target | viability hit class | caspase hit class | viability robust z-score | caspase robust z-score | Outcome
NCKAP1L (NCK associated protein 1 like) | no change | no change | 0.09 | -1 | inactive
CENPL (centromere protein L) | no change | no change | 0.78 | 0.46 | inactive
ANGPTL1 (angiopoietin like 1) | no change | no change | 0.58 | -0.71 | inactive
APBA3 (amyloid beta precursor protein binding family A member 3) | no change | no change | -2.31 | 0.55 | inactive
FAM217A (family with sequence similarity 217 member A) | no change | no change | 0.68 | 0.27 | inactive
NXF5 (nuclear RNA export factor 5) | no change | no change | 0.22 | -0.53 | inactive
RMDN2 (regulator of microtubule dynamics 2) | no change | no change | -0.38 | 0.08 | inactive
LDLRAD2 (low density lipoprotein receptor class A domain containing 2) | no change | no change | 0.41 | 0.44 | inactive

3 entries from above, ordered by “viability robust z-score”, ascending:
target | viability hit class | caspase hit class | viability robust z-score | caspase robust z-score | Outcome
APBA3 (amyloid beta precursor protein binding family A member 3) | no change | no change | -2.31 | 0.55 | inactive
NXF5 (nuclear RNA export factor 5) | no change | no change | 0.22 | -0.53 | inactive
FAM217A (family with sequence similarity 217 member A) | no change | no change | 0.68 | 0.27 | inactive

Further entries follow:
target | viability hit class | caspase hit class | viability robust z-score | caspase robust z-score | Outcome
PPP2R2C (protein phosphatase 2 regulatory subunit Bgamma) | no change | no change | 1.62 | -0.08 | inactive
GOLM2 (golgi membrane protein 2) | no change | no change | 0.7 | 1.43 | inactive
ACSL5 (acyl-CoA synthetase long chain family member 5) | no change | no change | -0.64 | -1.14 | inactive
TPK1 (thiamin pyrophosphokinase 1) | no change | no change | 0.47 | -0.54 | inactive
TMEM39A (transmembrane protein 39A) | no change | no change | -0.36 | -0.45 | inactive
MRPL3 (mitochondrial ribosomal protein L3) | no change | no change | 0.3 | -0.16 | inactive
NEK2 (NIMA related kinase 2) | no change | no change | 1.48 | 0.05 | inactive
PDE1C (phosphodiesterase 1C) | no change | no change | 0.57 | -0.58 | inactive
MAP1B (microtubule associated protein 1B) | no change | no change | 0.78 | -0.7 | inactive
ZNF334 (zinc finger protein 334) | no change | no change | 0.29 | -0.71 | inactive
PNMA6A (PNMA family member 6A) | no change | no change | -1.57 | 4.31 | inactive
FXR2 (FMR1 autosomal homolog 2) | no change | no change | -1.99 | 0.89 | inactive
CYP39A1 (cytochrome P450 family 39 subfamily A member 1) | no change | no change | -0.91 | 2.6 | inactive
MAP3K8 (mitogen-activated protein kinase kinase kinase 8) | no change | no change | -0.34 | -1.14 | inactive
CSF1 (colony stimulating factor 1) | no change | no change | 0.4 | 0.81 | inactive
